Article PMC6525239, “Hexameric NuMA:LGN structures promote multivalent interactions required for planar epithelial divisions” (Nature Communications, 2019)
No constants are given. Whether binding was seen depends on the method and setting. Binding can be weak; no strength is given.

T1: LGN^1–409 (TPR domain of LGN) (human)
T1 sequence (P81274 whole entry, looked up): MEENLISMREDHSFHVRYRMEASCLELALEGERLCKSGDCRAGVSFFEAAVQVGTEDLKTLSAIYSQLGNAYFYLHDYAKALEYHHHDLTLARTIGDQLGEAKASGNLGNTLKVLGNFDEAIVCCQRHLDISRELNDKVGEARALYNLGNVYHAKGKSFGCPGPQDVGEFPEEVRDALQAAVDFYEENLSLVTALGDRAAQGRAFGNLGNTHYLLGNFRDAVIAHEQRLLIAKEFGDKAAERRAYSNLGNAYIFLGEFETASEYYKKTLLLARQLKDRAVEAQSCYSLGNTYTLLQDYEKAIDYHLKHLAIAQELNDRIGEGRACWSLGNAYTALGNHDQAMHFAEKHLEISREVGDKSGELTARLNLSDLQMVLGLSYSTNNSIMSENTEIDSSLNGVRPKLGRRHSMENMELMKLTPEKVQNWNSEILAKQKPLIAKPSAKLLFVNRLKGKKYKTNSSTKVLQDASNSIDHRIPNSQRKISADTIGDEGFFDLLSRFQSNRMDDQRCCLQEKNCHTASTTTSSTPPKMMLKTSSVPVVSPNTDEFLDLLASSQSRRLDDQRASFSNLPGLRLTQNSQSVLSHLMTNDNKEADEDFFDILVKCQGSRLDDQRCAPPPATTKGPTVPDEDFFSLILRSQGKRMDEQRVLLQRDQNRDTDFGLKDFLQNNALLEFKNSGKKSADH

T2: LGN^7–367 (human)
T2 sequence (P81274 whole entry, looked up): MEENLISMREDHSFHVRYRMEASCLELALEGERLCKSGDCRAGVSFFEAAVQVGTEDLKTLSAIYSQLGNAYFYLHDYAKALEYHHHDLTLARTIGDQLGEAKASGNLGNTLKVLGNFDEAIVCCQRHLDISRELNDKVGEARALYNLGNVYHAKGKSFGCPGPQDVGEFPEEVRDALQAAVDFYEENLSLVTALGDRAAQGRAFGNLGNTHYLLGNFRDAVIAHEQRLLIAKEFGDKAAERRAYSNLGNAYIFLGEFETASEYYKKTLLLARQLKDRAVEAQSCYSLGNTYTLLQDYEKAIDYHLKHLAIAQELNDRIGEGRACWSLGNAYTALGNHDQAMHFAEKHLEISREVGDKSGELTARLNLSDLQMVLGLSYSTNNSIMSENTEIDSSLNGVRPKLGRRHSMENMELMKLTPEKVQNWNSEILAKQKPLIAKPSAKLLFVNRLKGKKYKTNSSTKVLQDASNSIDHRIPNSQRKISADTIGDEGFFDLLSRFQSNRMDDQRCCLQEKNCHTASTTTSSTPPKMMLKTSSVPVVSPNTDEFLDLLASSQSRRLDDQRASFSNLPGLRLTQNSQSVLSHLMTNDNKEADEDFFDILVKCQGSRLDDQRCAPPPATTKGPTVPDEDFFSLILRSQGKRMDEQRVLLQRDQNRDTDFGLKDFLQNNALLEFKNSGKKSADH


Assays:
[1] = biological target: T1, LGN^1–409 (TPR domain of LGN) (human); assay: SEC; analytical SEC, Superdex-200 Increase 3.2/300; LGN and NuMA variants mixed in equimolar amounts (20 μM; LGN^TPR:NuMA^PEPT 1:2); 20 mM Tris-HCl pH 8.0, 0.150 M NaCl, 5% glycerol, 1 mM DTT; fractions checked by SDS-PAGE; both purified
LGN^7–367 (human) = biological target: T2, LGN^7–367 (human); assay: crystal structure; LGN^7–367:NuMA^LGNBD complex at 14 mg/ml with 20 mM TCEP; 10% PEG3350, 0.05 M Bis-Tris propane pH 7.5, 0.1 M Na-formate or Na-acetate, 20 °C; 4.3 Å, eleven datasets merged; both purified
[2] = biological target: T1, LGN^1–409 (TPR domain of LGN) (human); assay: SEC; Superose-6 column; LGN^TPR or LGN^TPR-ΔOLIGO combined with NuMA-chimera in a 1:1.2 molar ratio; both purified
[3] = biological target: LGN^TPR-ΔOLIGO (LGN^13–350) (human); assay: as above
[4] = biological target: T1, LGN^1–409 (TPR domain of LGN) (human); assay: SEC-MALS; static light scattering (SLS) on a Viscotek GPCmax/TDA with two TSKgel G3000PWxl columns in series; 75 μl of purified sample at about 1.5–2 mg/ml; both purified

| Binder | binding [1] | binding [4] | further results |
| --- | --- | --- | --- |
| NuMA^LGNBD-Δ1881–1897 (domain or fragment, UniProt Q14980 1861-1880; Q14980 1898-1928) GSPDYGNSALLSLPGYRPTTTGSGRNSFYMGTCQDEPEQLDDWNRIAELQQRNR | binds |  |  |
| NuMA^1861–1928 (domain or fragment, UniProt Q14980 1861-1928) GSPDYGNSALLSLPGYRPTTRSSARRSQAGVSSGAPPGRNSFYMGTCQDEPEQLDDWNRIAELQQRNR | binds |  | binding (LGN^7–367 (human)): binds |
| NuMA chimera (NuMA 1592–1694 joined to NuMA 1821–2001 by eight Thr-Gly-Ser repeats) (domain or fragment, human, NuMA, human, residues 1592-1694 (dimerizing coiled-coil); also called chimeric NuMA construct; source: E. coli BL21 Rosetta, purified (Ni HiTrap chelating, PreScission cleavage, Resource-Q, Superose-6)) QLNELQAQLSQKEQAAEHYKLQMEKAKTHYDAKKQQNQELQEQLRSLEQLQKENKELRAEAERLGHELQQAGLKTKEAEQTCRHLTAQVRSLEAQVAHADQQLTGSTGSTGSTGSTGSTGSTGSTGSKKLDVEEPDSANSSFYSTRSAPASQASLRATSSTQSLARLGSPDYGNSALLSLPGYRPTTRSSARRSQAGVSSGAPPGRNSFYMGTCQDEPEQLDDWNRIAELQQRNRVCPPHLKTCYPLESRPSLSLGTITDEEMKTGDPQETLRRASMQPIQIAEGTGITTRQQRKRVSLEPHQGPGTP |  | binds | binding [2]: binds; binding [3]: binds |
| NuMA^1821–2001 (domain or fragment, UniProt Q14980 1821-2001) KKLDVEEPDSANSSFYSTRSAPASQASLRATSSTQSLARLGSPDYGNSALLSLPGYRPTTRSSARRSQAGVSSGAPPGRNSFYMGTCQDEPEQLDDWNRIAELQQRNRVCPPHLKTCYPLESRPSLSLGTITDEEMKTGDPQETLRRASMQPIQIAEGTGITTRQQRKRVSLEPHQGPGTP | binds |  |  |
| NuMA^1821–1928 (domain or fragment, UniProt Q14980 1821-1928) KKLDVEEPDSANSSFYSTRSAPASQASLRATSSTQSLARLGSPDYGNSALLSLPGYRPTTRSSARRSQAGVSSGAPPGRNSFYMGTCQDEPEQLDDWNRIAELQQRNR |  | binds |  |
| NuMA^1877–1928 (domain or fragment, UniProt Q14980 1877-1928) RPTTRSSARRSQAGVSSGAPPGRNSFYMGTCQDEPEQLDDWNRIAELQQRNR | binds |  |  |
